According to the supplement of paper PMC8728848:
This is one part of the list.

Experiments:
Assay in all cases: glycan array binding signal (z-score within array); higher = stronger binding
Details in all cases: glycan notation: IUPAC condensed, linker removed
[1] = target: Gal(b1-4)GlcNAc(b1-3)Gal(b1-4)GlcNAc(b1-3)[Gal(b1-4)GlcNAc(b1-3)Gal(b1-4)GlcNAc(b1-6)]GalNAc
How it was run: (§1)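 Glycan array binding is given as a within-array Z-score, which can be read as non-binding when negative. The arrays, 3228 of them, came from the Consortium for Functional Glycomics database and were retained only where the protein sequence was available. Z-scores were averaged across arrays of the same protein sequence at different concentrations or buffers and across linkers.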

[2] = target: Gal(b1-4)GlcNAc(b1-3)Gal(b1-4)GlcNAc(b1-6)[Gal(b1-3)]GalNAc
How it was run: as §1

[3] = target: Gal(b1-4)GlcNAc(b1-3)Gal(b1-4)[Fuc(a1-3)]GlcNAc(b1-3)Gal(b1-4)[Fuc(a1-3)]GlcNAc
How it was run: as §1

[4] = target: Gal(b1-4)GlcNAc(b1-3)GalNAc
How it was run: as §1

[5] = target: Gal(b1-4)GlcNAc(b1-3)[Fuc(a1-3)GlcNAc(b1-6)]Gal(b1-4)Glc
How it was run: as §1

[6] = target: Gal(b1-4)GlcNAc(b1-3)[Gal(b1-4)GlcNAc(b1-6)]Gal(b1-4)GlcNAc
How it was run: as §1

[7] = target: Gal(b1-4)GlcNAc(b1-3)[GlcNAc(b1-6)]Gal(b1-4)GlcNAc
How it was run: as §1

[8] = target: Gal(b1-4)GlcNAc(b1-6)Gal(b1-4)GlcNAc
How it was run: as §1

[9] = target: Gal(b1-4)GlcNAc(b1-6)GalNAc
How it was run: as §1

[10] = target: Gal(b1-4)GlcNAc(b1-6)[Gal(b1-3)]GalNAc
How it was run: as §1

[11] = target: Gal(b1-4)GlcNAc(b1-6)[Gal(b1-4)GlcNAc(b1-3)]GalNAc
How it was run: as §1

[12] = target: Gal(b1-4)GlcNAc6P
How it was run: as §1

[13] = target: Gal(b1-6)Gal
How it was run: as §1

[14] = target: Gal3S(b1-3)GalNAc
How it was run: as §1

[15] = target: Gal3S(b1-3)GlcNAc
How it was run: as §1

[16] = target: Gal3S(b1-3)[Fuc(a1-4)]GlcNAc
How it was run: as §1

[17] = target: Gal3S(b1-4)Glc
How it was run: as §1

[18] = target: Gal3S(b1-4)Glc6S
How it was run: as §1

[19] = target: Gal3S(b1-4)GlcNAc
How it was run: as §1

[20] = target: Gal3S(b1-4)[Fuc(a1-3)]Glc6S
How it was run: as §1

[21] = target: Gal3S(b1-4)[Fuc(a1-3)]GlcNAc
How it was run: as §1

[22] = target: Gal3S(b1-4)[Fuc(a1-3)]GlcNAc6S
How it was run: as §1

[23] = target: Gal3S4S(b1-4)GlcNAc
How it was run: as §1

[24] = target: Gal3S6S(b1-4)GlcNAc
How it was run: as §1

[25] = target: Gal3S6S(b1-4)GlcNAc6S
How it was run: as §1

[26] = target: Gal4S(b1-4)GlcNAc
How it was run: as §1

[27] = target: Gal4S6S(b1-4)GlcNAc
How it was run: as §1

[28] = target: Gal6P(b1-4)GlcNAc
How it was run: as §1

[29] = target: Gal6S(b1-3)GlcNAc
How it was run: as §1

[30] = target: Gal6S(b1-3)GlcNAc6S
How it was run: as §1

[31] = target: Gal6S(b1-4)Glc
How it was run: as §1

[32] = target: Gal6S(b1-4)Glc6S
How it was run: as §1

[33] = target: Gal6S(b1-4)GlcNAc
How it was run: as §1

[34] = target: Gal6S(b1-4)GlcNAc6S
How it was run: as §1

[35] = target: GalNAc(a1-3)Gal
How it was run: as §1

[36] = target: GalNAc(a1-3)GalNAc
How it was run: as §1

[37] = target: GalNAc(a1-3)GalNAc(b1-3)Gal(a1-4)Gal(b1-4)Glc
How it was run: as §1

[38] = target: GalNAc(a1-3)GalNAc(b1-3)Gal(a1-4)Gal(b1-4)GlcNAc
How it was run: as §1

[39] = target: GalNAc(b1-3)Gal
How it was run: as §1

[40] = target: GalNAc(b1-3)Gal(a1-4)Gal(b1-4)GlcNAc
How it was run: as §1

[41] = target: GalNAc(b1-3)Gal(a1-4)Gal(b1-4)GlcNAc(b1-3)Gal(b1-4)Glc
How it was run: as §1

[42] = target: GalNAc(b1-3)Gal(a1-6)Gal(b1-4)Glc
How it was run: as §1

[43] = target: GalNAc(b1-3)GalNAc
How it was run: as §1

[44] = target: GalNAc(b1-3)GlcNAc
How it was run: as §1

[45] = target: GalNAc(b1-4)Gal(b1-4)Glc
How it was run: as §1

B1: EfCBM33A (Enterococcus faecalis), Q838S1 (protein)
chain: MKKSLLTIVLAFSFVLGGAALAPTVSEAHGYVASPGSRAFFGSSAGGNLNTNVGRAQWEPQSIEAPKNTFITGKLASAGVSGFEPLDEQTATRWHKTNITTGPLDITWNLTAQHRTASWDYYITKNGWNPNQPLDIKNFDKIASIDGKQEVPNKVVKQTINIPTDRKGYHVIYAVWGIGDTVNAFYQAIDVNIQ
glycan array binding signal (z-score) [1]: -0.931
glycan array binding signal (z-score) [2]: 1.36
glycan array binding signal (z-score) [3]: 0.067
glycan array binding signal (z-score) [4]: -0.261
glycan array binding signal (z-score) [5]: 0.183
glycan array binding signal (z-score) [6]: 1.04
glycan array binding signal (z-score) [7]: -0.489
glycan array binding signal (z-score) [8]: 1.43
glycan array binding signal (z-score) [9]: 0
glycan array binding signal (z-score) [10]: 0.516
glycan array binding signal (z-score) [11]: 0.288
glycan array binding signal (z-score) [12]: -0.716
glycan array binding signal (z-score) [13]: -1.04
glycan array binding signal (z-score) [14]: -0.034
glycan array binding signal (z-score) [15]: 0.456
glycan array binding signal (z-score) [16]: 2.81
glycan array binding signal (z-score) [17]: 0.229
glycan array binding signal (z-score) [18]: -0.436
glycan array binding signal (z-score) [19]: -0.149
glycan array binding signal (z-score) [20]: 0.12
glycan array binding signal (z-score) [21]: 1.56
glycan array binding signal (z-score) [22]: -0.305
glycan array binding signal (z-score) [23]: -1.01
glycan array binding signal (z-score) [24]: -0.444
glycan array binding signal (z-score) [25]: -0.418
glycan array binding signal (z-score) [26]: -1.18
glycan array binding signal (z-score) [27]: -0.01
glycan array binding signal (z-score) [28]: 0.079
glycan array binding signal (z-score) [29]: 0.101
glycan array binding signal (z-score) [30]: -0.617
glycan array binding signal (z-score) [31]: 0.979
glycan array binding signal (z-score) [32]: -0.674
glycan array binding signal (z-score) [33]: 0.105
glycan array binding signal (z-score) [34]: 0.294
glycan array binding signal (z-score) [35]: -1.02
glycan array binding signal (z-score) [36]: -0.407
glycan array binding signal (z-score) [37]: -1
glycan array binding signal (z-score) [38]: -0.606
glycan array binding signal (z-score) [39]: 1.69
glycan array binding signal (z-score) [40]: -0.151
glycan array binding signal (z-score) [41]: 0.963
glycan array binding signal (z-score) [42]: -1.28
glycan array binding signal (z-score) [43]: -0.516
glycan array binding signal (z-score) [44]: -0.001
glycan array binding signal (z-score) [45]: -0.885
